The list shows a part of the results.

The experiment concerns the target T1, OsSMF1 (Oryza sativa, UniProt Q6ZLB0 1-436).
T1 sequence: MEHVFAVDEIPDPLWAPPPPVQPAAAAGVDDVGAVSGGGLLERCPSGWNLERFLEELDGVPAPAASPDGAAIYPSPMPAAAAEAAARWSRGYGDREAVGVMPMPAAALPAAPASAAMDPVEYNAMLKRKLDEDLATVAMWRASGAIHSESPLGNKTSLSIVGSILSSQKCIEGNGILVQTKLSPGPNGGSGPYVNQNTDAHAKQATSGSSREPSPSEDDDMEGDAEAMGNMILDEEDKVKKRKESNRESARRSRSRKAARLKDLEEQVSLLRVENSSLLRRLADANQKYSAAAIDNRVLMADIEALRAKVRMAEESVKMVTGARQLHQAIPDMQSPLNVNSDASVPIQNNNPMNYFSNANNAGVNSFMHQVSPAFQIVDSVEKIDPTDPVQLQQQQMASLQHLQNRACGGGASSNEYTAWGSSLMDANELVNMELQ
Put plainly: protein-binding microarray (RPBM); PBS, 2% BSA, 51.3 ng/ul salmon testes DNA, 50 uM zinc acetate, 200 nM TF, 25 C, 1 h; high values mean tight binding. To be noted: protein: recombinant; tags: N-terminal polyhistidine and DsRed monomer fusion (pET32a); chain copies: 2; label: CyDye5-dUTP incorporated in the synthesized complementary strand; 3' TTTTT single-stranded linker to array surface; dsDNA, one strand shown. An outline of the steps:
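A custom Agilent array was converted to double-stranded form by primer extension with Cy5-dUTP and blocked with 2% BSA. Protein at 200 nM in PBS with 2% BSA, salmon testes DNA and 50 µM zinc acetate was applied for 1 h at 25 °C, followed by washing. The proteins were polyhistidine–DsRed N-terminal fusions of transcription factors, expressed in E. coli BL21-CodonPlus and Ni–NTA-purified. The binding signal is per-feature fluorescence intensity (arbitrary units) from an Axon 4000B scanner.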
Regarding “ACAGTAGGGGACTGCTGATCGGCGACTGACCGCGCGCGCCCGGAGTCACCTAGTGCAG”, the binding signal was 4560 fluorescence intensity (a.u.).

Regarding “CGGAAAAGAAAGCCATGGAAGAAATGACGCAAGCAGCGGACGGAGTCACCTAGTGCAG”, the binding signal is 4230 fluorescence intensity (a.u.). The same measure for “ATGATAAAAGGAGGTTAACCTGTGACCACATCATCTGCACCGGAGTCACCTAGTGCAG”: 4400 fluorescence intensity (a.u.). As for “TACACCAAATTGACTAGGCATATATTTGTACCACTCATTCCGGAGTCACCTAGTGCAG”, the binding signal was 5060 fluorescence intensity (a.u.). “ACATATGGTCTTTTGGTCACCTCCACTGCTGACTAGGCATCGGAGTCACCTAGTGCAG”: the binding signal was 21000 fluorescence intensity (a.u.). The result for “ACGGGCGGGCGTACGACGTCACACGTGCACCCACGCGCCGCGGAGTCACCTAGTGCAG” reads 7350 fluorescence intensity (a.u.); that for “AAAATATTATGGGTCCCACTGATTATGTGGGACCCACATGCGGAGTCACCTAGTGCAG”, 3550 fluorescence intensity (a.u.). With “TCTGATGGATCAGCATGCACGTAGTGTACACGTCACTCCACGGAGTCACCTAGTGCAG”, the binding signal was 21200 fluorescence intensity (a.u.). On to “TCTCAACCCTCAGGTAATCTACTGCTGCGCGTGGTGAATCCGGAGTCACCTAGTGCAG”, for which the binding signal is 4080 fluorescence intensity (a.u.). The result for “TTGACTGTGGGACACACGTGTCAGAGAGTGACCTGCGTCTCGGAGTCACCTAGTGCAG” reads 11300 fluorescence intensity (a.u.); that for “TCATCGTGGACACGTACCCTCGTGCATGCGCGCATGGTGTCGGAGTCACCTAGTGCAG”, 5950 fluorescence intensity (a.u.).

Take “TTGTGACCAAATAAGTTCTGCTTCTTTGGTAACTTTATTCCGGAGTCACCTAGTGCAG”: the binding signal was 14000 fluorescence intensity (a.u.). The same measure for “CCGCCAACACCTCACCCGCCGCCAACCACGACCGCGCGGCCGGAGTCACCTAGTGCAG”: 31900 fluorescence intensity (a.u.). For the sequence “AACCCACCTATCTTGTTTTCCACGTGTACGCTTTTCAAACCGGAGTCACCTAGTGCAG”, the binding signal was 9970 fluorescence intensity (a.u.). Turning to “CGCGAGGTGACGCTGACGCGTCCATCGCGCACGACATCGCCGGAGTCACCTAGTGCAG”, the binding signal was 9000 fluorescence intensity (a.u.). The same measure for “GCAGCACTCACAGCTCGACACGTGTCCCGCATCACGTGTCCGGAGTCACCTAGTGCAG”: 8430 fluorescence intensity (a.u.); for “AGAAGAGGGAGACAGAGGATAGAGAGAAGAGGGCACTTCACGGAGTCACCTAGTGCAG”: 11900 fluorescence intensity (a.u.); for “ACACCTATATCTCCTAGCTAGGACTCATAGGTGGCAGCTCCGGAGTCACCTAGTGCAG”: 3850 fluorescence intensity (a.u.). For the sequence “CATCTTACTCTAGCTTCTCCATTCCAAAATTCACCACCGCCGGAGTCACCTAGTGCAG”, the binding signal is 23000 fluorescence intensity (a.u.). For the sequence “TAGTTTTAAGAAATATATAATTTATGGCGTGCAACTCCTACGGAGTCACCTAGTGCAG”, the binding signal is 3660 fluorescence intensity (a.u.). Regarding “TCAATGAGCCATGTAGGACAAACTCAATCATGCGATTAGTCGGAGTCACCTAGTGCAG”, the binding signal is 3250 fluorescence intensity (a.u.). The same measure for “GAGGTAAGAGCATGTGAACCTATACCTGCGGAGCAACCGCCGGAGTCACCTAGTGCAG”: 3870 fluorescence intensity (a.u.). The result for “GATGTCATGCATGCATGTATATATTTCAATCGACTTTGGTCGGAGTCACCTAGTGCAG” reads 6410 fluorescence intensity (a.u.); that for “TGGTGACGGTGACTCCAACCCTGACATATACACGCAATACCGGAGTCACCTAGTGCAG”, 5120 fluorescence intensity (a.u.). The same measure for “TTAACAGTTGGTTACTAGTCCTAATTAATTCAGTAGCAATCGGAGTCACCTAGTGCAG”: 4700 fluorescence intensity (a.u.); for “GCAGCCATTTACGCTTTCCACGTCAGTGCATGATGGAGTACGGAGTCACCTAGTGCAG”: 16800 fluorescence intensity (a.u.); for “AGAGGGAAGCCACGGTTCACGCTGGCCAAGCACCCCACGCCGGAGTCACCTAGTGCAG”: 3560 fluorescence intensity (a.u.). Turning to “AATAGATTTTCTAACCAATGATCATAAGACAGTATGTGGTCGGAGTCACCTAGTGCAG”, the binding signal is 3760 fluorescence intensity (a.u.). Regarding “CGACGCGGCCAGCGGCGGCGGCCCCAGAGATGACGCGCGTCGGAGTCACCTAGTGCAG”, the binding signal is 3390 fluorescence intensity (a.u.).

“TTCCCAGTCCTCTTCCCTTGACACGAGCTTTCCAAATTTCCGGAGTCACCTAGTGCAG”: the binding signal is 3960 fluorescence intensity (a.u.). The result for “CCGCCGCGGCCACTGACGAGGACCGCGAGCTCCTCCGTCCCGGAGTCACCTAGTGCAG” reads 3230 fluorescence intensity (a.u.); that for “GACGCGTGCCCCTTCTCCATCCCCTATCTGACCATCAGCGCGGAGTCACCTAGTGCAG”, 3170 fluorescence intensity (a.u.); that for “GAACTAGTCCAGTGTGTCCAGTCTGGCTCCCTTCGTCTCCCGGAGTCACCTAGTGCAG”, 3480 fluorescence intensity (a.u.). The result for “GCAGTATTTACATCAATATTACGTGGATTTAGCCTAAAAGCGGAGTCACCTAGTGCAG” reads 6780 fluorescence intensity (a.u.). With “TTTTGACTTTCGCATGATCACATCAAATCCAGCGGAGCCGCGGAGTCACCTAGTGCAG”, the binding signal is 3510 fluorescence intensity (a.u.). “CAATGGCGGCTGGGATCTGATCTTATGTGATGCCATATTTCGGAGTCACCTAGTGCAG”: the binding signal is 3490 fluorescence intensity (a.u.).

Regarding “TGTGTCGTACGTCACGGCCCACGTCATCATCATACCGTTTCGGAGTCACCTAGTGCAG”, the binding signal is 37000 fluorescence intensity (a.u.). As to “AAATTGATATTGCATGCCTTTTATATGAGGTGCCACGTCACGGAGTCACCTAGTGCAG”, the binding signal is 27000 fluorescence intensity (a.u.). As for “CACGCCGCCAGGCCGGGCCCATCTGGCTTAACCACGCCCGCGGAGTCACCTAGTGCAG”, the binding signal was 3620 fluorescence intensity (a.u.).

Take “GGGTGATGATGTGGCATATTTGCATGTGATTTACTCTATACGGAGTCACCTAGTGCAG”: the binding signal was 13400 fluorescence intensity (a.u.). For “TGGATGACCTGGTACATGGGCGTGATCCCGCTCCCGCCGGCGGAGTCACCTAGTGCAG”, the binding signal was 3340 fluorescence intensity (a.u.). The same measure for “CAAGATGCATGAGGCCGCACGACCTTAAAGTTCAACGTGGCGGAGTCACCTAGTGCAG”: 3140 fluorescence intensity (a.u.).

(Values after PMC7819943, “Rice protein-binding microarrays: a tool to detect cis-acting elements near promoter regions in rice”.)
